{
  "sequences": {"note": "By UniProt entry, the sequences of proteins in these tests, tags left out. Where a name states a change or a piece, a line headed by the entry shows the natural chain unless it says otherwise. Residues count along the entry.", "UniProt P98170, 10-99": "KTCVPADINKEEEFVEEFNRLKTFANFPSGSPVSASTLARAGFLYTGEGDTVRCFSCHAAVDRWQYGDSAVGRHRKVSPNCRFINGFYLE"},
  "source": "paper doi:10.1101/2020.03.27.011510",
  "about": "(bioRxiv, 2020)",
  "key": {"[1]": {"molecular_target": "WT BIR1 C12-GdII (spin-labelled at C12 with BrPSPy-DO3MA-Gd3+) (UniProt P98170)", "assay": "DEER"}, "[2]": {"molecular_target": "WT BIR1 C12-GdII (spin-labelled at C12 with BrPSPy-DO3MA-Gd3+) (UniProt P98170)", "assay": "DEER", "remark": "listed apart in the source"}, "BIR1 C12A/E22C-GdI [3]": {"molecular_target": "BIR1 C12A/E22C-GdI (UniProt P98170)", "assay": "DEER"}, "BIR1 C12A/E22C-GdI [4]": {"molecular_target": "BIR1 C12A/E22C-GdI (UniProt P98170)", "assay": "DEER", "remark": "listed apart in the source"}, "BIR1 C12A/E22C-GdI [5]": {"molecular_target": "BIR1 C12A/E22C-GdI (UniProt P98170)", "assay": "DEER", "remark": "listed apart in the source"}, "BIR1 C12A/E22C-GdII [6]": {"molecular_target": "BIR1 C12A/E22C-GdII (UniProt P98170)", "assay": "DEER"}, "BIR1 C12A/E22C-GdII [7]": {"molecular_target": "BIR1 C12A/E22C-GdII (UniProt P98170)", "assay": "DEER", "remark": "listed apart in the source"}, "BIR1 C12A/E22C-GdII [8]": {"molecular_target": "BIR1 C12A/E22C-GdII (UniProt P98170)", "assay": "DEER", "remark": "listed apart in the source"}, "[9]": {"molecular_target": "S87A BIR1 mutant, without spin label (UniProt P98170)", "assay": "SEC"}, "BIR1 C12A/K19C-GdI": {"molecular_target": "BIR1 C12A/K19C-GdI (UniProt P98170)", "assay": "DEER"}, "BIR1 C12A/V24C-GdI": {"molecular_target": "BIR1 C12A/V24C-GdI (UniProt P98170)", "assay": "DEER"}, "BIR1 C12A/N28C-GdI [10]": {"molecular_target": "BIR1 C12A/N28C-GdI (UniProt P98170)", "assay": "DEER"}, "BIR1 C12A/N28C-GdI [11]": {"molecular_target": "BIR1 C12A/N28C-GdI (UniProt P98170)", "assay": "DEER", "remark": "listed apart in the source"}, "BIR1 C12A/N28C-GdII [12]": {"molecular_target": "BIR1 C12A/N28C-GdII (UniProt P98170)", "assay": "DEER"}, "BIR1 C12A/N28C-GdII [13]": {"molecular_target": "BIR1 C12A/N28C-GdII (UniProt P98170)", "assay": "DEER", "remark": "listed apart in the source"}},
  "note": "Read-outs that look alike come from different tables or passages of the source. No constants are given. Whether binding was seen depends on the method and setting. Some binding calls cover weakened binding; strength is not graded here.",
  "data": [
    {"substance": "WT BIR1 C12-GdII (spin-labelled at C12 with BrPSPy-DO3MA-Gd3+) (from UniProt P98170 10-99) (domain or fragment)", "values": [
      {"measurement": "binding", "setting": "[1]", "value": "binds"},
      {"measurement": "binding", "setting": "[2]", "value": "binds"}
    ]},
    {"substance": "BIR1 C12A/E22C-GdI (from UniProt P98170 10-99) (domain or fragment)", "values": [
      {"measurement": "binding", "setting": "BIR1 C12A/E22C-GdI [3]", "value": "binds"},
      {"measurement": "binding", "setting": "BIR1 C12A/E22C-GdI [4]", "value": "binds"},
      {"measurement": "binding", "setting": "BIR1 C12A/E22C-GdI [5]", "value": "binds"}
    ]},
    {"substance": "BIR1 C12A/E22C-GdII (from UniProt P98170 10-99) (domain or fragment)", "values": [
      {"measurement": "binding", "setting": "BIR1 C12A/E22C-GdII [6]", "value": "binds"},
      {"measurement": "binding", "setting": "BIR1 C12A/E22C-GdII [7]", "value": "binds"},
      {"measurement": "binding", "setting": "BIR1 C12A/E22C-GdII [8]", "value": "binds"}
    ]},
    {"substance": "S87A BIR1 mutant, without spin label (from UniProt P98170 10-99) (domain or fragment)", "values": [
      {"measurement": "binding", "setting": "[9]", "value": "binds"}
    ]},
    {"substance": "BIR1 C12A/K19C-GdI (from UniProt P98170 10-99) (domain or fragment)", "values": [
      {"measurement": "binding", "setting": "BIR1 C12A/K19C-GdI", "value": "binds"}
    ]},
    {"substance": "BIR1 C12A/V24C-GdI (from UniProt P98170 10-99) (domain or fragment)", "values": [
      {"measurement": "binding", "setting": "BIR1 C12A/V24C-GdI", "value": "binds"}
    ]},
    {"substance": "BIR1 C12A/N28C-GdI (from UniProt P98170 10-99) (domain or fragment)", "values": [
      {"measurement": "binding", "setting": "BIR1 C12A/N28C-GdI [10]", "value": "binds"},
      {"measurement": "binding", "setting": "BIR1 C12A/N28C-GdI [11]", "value": "binds"}
    ]},
    {"substance": "BIR1 C12A/N28C-GdII (from UniProt P98170 10-99) (domain or fragment)", "values": [
      {"measurement": "binding", "setting": "BIR1 C12A/N28C-GdII [12]", "value": "binds"},
      {"measurement": "binding", "setting": "BIR1 C12A/N28C-GdII [13]", "value": "binds"}
    ]}
  ]
}
